This is one part of the list.

Sequences of proteins named here, by UniProt entry; tags and fusion partners are left off.
UniProt Q0JBA9, entry or part of it: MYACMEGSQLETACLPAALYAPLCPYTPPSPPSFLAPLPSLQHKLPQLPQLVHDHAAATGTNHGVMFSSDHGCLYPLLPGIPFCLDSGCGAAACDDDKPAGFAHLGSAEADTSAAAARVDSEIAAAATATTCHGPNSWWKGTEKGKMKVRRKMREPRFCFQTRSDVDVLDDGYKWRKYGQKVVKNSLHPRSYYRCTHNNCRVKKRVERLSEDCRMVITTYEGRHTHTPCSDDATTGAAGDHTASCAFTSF

The assay has as its target OsWRKY34 (Oryza sativa, UniProt Q0JBA9 1-250). Description: protein-binding microarray (RPBM); PBS, 2% BSA, 51.3 ng/ul salmon testes DNA, 50 uM zinc acetate, 200 nM TF, 25 C, 1 h; high values mean tight binding. The settings on record: protein: recombinant; tags: N-terminal polyhistidine and DsRed monomer fusion (pET32a); label: CyDye5-dUTP incorporated in the synthesized complementary strand; 3' TTTTT single-stranded linker to array surface; dsDNA, one strand shown. The gist of the method: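 Transcription factors were each fused at the N-terminus to a polyhistidine tag plus DsRed and expressed in E. coli BL21-CodonPlus before Ni–NTA purification. Binding to a double-stranded custom Agilent array was carried out with 200 nM protein at 25 °C for 1 h in PBS, 2% BSA, salmon testes DNA and 50 µM zinc acetate. The binding signal is per-feature fluorescence intensity, in arbitrary units, on an Axon 4000B scanner.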
In the case of “TGACCGGTTTTGTTTAGTTAAGTGACCTCGCATATCTGTTCGGAGTCACCTAGTGCAG”, the binding signal was 9570 fluorescence intensity (a.u.).

For the sequence “GACACAAAACGCATGTCCCAACTCCCAGGTTCCATTTCCCCGGAGTCACCTAGTGCAG”, the binding signal is 8220 fluorescence intensity (a.u.).

Take “TGGTGAGGGCTCGTTTTGTTTCTTGAGATCAGTTGGTATTCGGAGTCACCTAGTGCAG”: the binding signal was 8140 fluorescence intensity (a.u.).

Take “CCCATCGCCTAGCTGCTTCGCCGTTTATTTTAAGATTTTTCGGAGTCACCTAGTGCAG”: the binding signal was 9040 fluorescence intensity (a.u.).

“ACTATGGCCTGGTTTAGTTCCCAACTTTTTCTTTAAACTTCGGAGTCACCTAGTGCAG”: the binding signal was 9850 fluorescence intensity (a.u.).

Turning to “TGCTGGTGAGCTAACGTGACCGAACCCAACATTATGTTCCCGGAGTCACCTAGTGCAG”, the binding signal was 8820 fluorescence intensity (a.u.).

For the sequence “AAGTTATGTTTGTTTTGTTGCATCATGCTTGTTATACTTTCGGAGTCACCTAGTGCAG”, the binding signal was 10800 fluorescence intensity (a.u.).

Take “GGTTATGGGCGGGTTGAGCAATGTTTTTCATGATTAGTCTCGGAGTCACCTAGTGCAG”: the binding signal was 18600 fluorescence intensity (a.u.).

Consider “GACATGTGGGGTTTATTTTTGTTCTTGTCACGTAAACGTCCGGAGTCACCTAGTGCAG”, for which the binding signal is 10000 fluorescence intensity (a.u.).

Regarding “CTCACACACCGGCGACCACCACTCCACTCTCCACCCACCCCGGAGTCACCTAGTGCAG”, the binding signal was 9310 fluorescence intensity (a.u.).

As for “TCGGCTTTGCTTCTTCGGTCGCTTTTTTTTTTGGCTGTTCCGGAGTCACCTAGTGCAG”, the binding signal was 9160 fluorescence intensity (a.u.).

“GATAACAAACGCACGGTTCTCATCTTCCATCGTCACTCACCGGAGTCACCTAGTGCAG”: the binding signal is 8680 fluorescence intensity (a.u.).

As to “TGTTCTTGTTGATTTTTGTGTGTTTGTTTGACTGAAAGGTCGGAGTCACCTAGTGCAG”, the binding signal is 8980 fluorescence intensity (a.u.).

For the sequence “GCTTGATTTATTATTTACCATGTTAAAAATATTTATTTGTCGGAGTCACCTAGTGCAG”, the binding signal was 9270 fluorescence intensity (a.u.).

On to “CCTTGGCCACCACCACTACTGCCCTTGATGGTATCCATACCGGAGTCACCTAGTGCAG”, for which the binding signal is 8290 fluorescence intensity (a.u.).

On to “TCCTCCTCCTCGCCGCCGCCGCCGCCGCCGTCGCCGTCGACGGAGTCACCTAGTGCAG”, for which the binding signal was 8030 fluorescence intensity (a.u.).

With “CATGACCGGCCACCACCATTGCCACCGGCCGATCTCCTCTCGGAGTCACCTAGTGCAG”, the binding signal is 10300 fluorescence intensity (a.u.).

Turning to “CCACGGCGCCACGCGCGCGCATCATTACACATCACGTACACGGAGTCACCTAGTGCAG”, the binding signal is 8100 fluorescence intensity (a.u.).

With “CGCACACAGACCAACTGACAGCCTGGACCCACAACTCAGCCGGAGTCACCTAGTGCAG”, the binding signal was 8270 fluorescence intensity (a.u.).

Take “TGTTCAGAGTATATACCATTATGATTTTATCTACCGGATCCGGAGTCACCTAGTGCAG”: the binding signal was 8360 fluorescence intensity (a.u.).

Turning to “CTGCTGCCAACCCATCCCCAACACGCAACATCTCTCTGCCCGGAGTCACCTAGTGCAG”, the binding signal was 8110 fluorescence intensity (a.u.).

“CCATTGTTAGGGTTAAGTCTTATTTCACCACATCGTTTTTCGGAGTCACCTAGTGCAG”: the binding signal was 8740 fluorescence intensity (a.u.).

“TATCAATTGCTCTTGTCATCTCTGATCTGCCTGCCGCTGCCGGAGTCACCTAGTGCAG”: the binding signal was 9070 fluorescence intensity (a.u.).

Take “ATCTTTTTCTACTATCACTATATCATATTCTATTTTTTTTCGGAGTCACCTAGTGCAG”: the binding signal is 10500 fluorescence intensity (a.u.).

As for “TCGTGCCTTTTCCCTCGCTGCATATTTATACCGCTACTCACGGAGTCACCTAGTGCAG”, the binding signal was 8640 fluorescence intensity (a.u.).

In the case of “CATTCCACTTTCAAGTTTCAACTAGCCAGGTACAGCATGTCGGAGTCACCTAGTGCAG”, the binding signal is 8660 fluorescence intensity (a.u.).

With “TTTTTTCCTGTTACACGTTTAGCTTATACGTTGGCCTCATCGGAGTCACCTAGTGCAG”, the binding signal was 10800 fluorescence intensity (a.u.).

Take “GAGTCCTCCATCGCGTCCCTCATCGACCGCGCCACCTCCACGGAGTCACCTAGTGCAG”: the binding signal was 9410 fluorescence intensity (a.u.).

On to “CTTTTTTTTAATGTATTGATGCTTCTTTTCTAGTTTGTACCGGAGTCACCTAGTGCAG”, for which the binding signal was 9060 fluorescence intensity (a.u.).

Take “TGTCATTGGCTTTCCCGCGCTCCCTGCCTTGTCGCTCTCTCGGAGTCACCTAGTGCAG”: the binding signal was 10600 fluorescence intensity (a.u.).

“ATCTCCAATATACTGTCTTTACAGGTTCTTCGCTGTCTTGCGGAGTCACCTAGTGCAG”: the binding signal was 10200 fluorescence intensity (a.u.).

“CCTCCGCTTCTTCCTCACGCAGCTCTCGCCTCGCCTCGCCCGGAGTCACCTAGTGCAG”: the binding signal was 8620 fluorescence intensity (a.u.).

On to “CCCGCCGCCTGGGTTTCGTGCCGATTTTGATTTCCTTTTTCGGAGTCACCTAGTGCAG”, for which the binding signal is 9050 fluorescence intensity (a.u.).

As to “TCCACCTCGTCCGTCCATCGCGTGGGCCCCACCCCGACCGCGGAGTCACCTAGTGCAG”, the binding signal was 8070 fluorescence intensity (a.u.).

Regarding “TACTATTCCCTCAAGTTCTTCATTTCTTATCATTTTGGACCGGAGTCACCTAGTGCAG”, the binding signal is 8310 fluorescence intensity (a.u.).

Consider “GTGGCCTCGCCCCGTCCTGTGACTCCTTGGCCCGGCGCGCCGGAGTCACCTAGTGCAG”, for which the binding signal is 12000 fluorescence intensity (a.u.).

Turning to “TTCTTTGTTGGATTGATGATCGCTTTTGTGTGGGAGAGGTCGGAGTCACCTAGTGCAG”, the binding signal is 9380 fluorescence intensity (a.u.).

For “GTTAGTTTTTAAGTTCGTTCGCTTTTGGAAATACAGATCCCGGAGTCACCTAGTGCAG”, the binding signal is 13500 fluorescence intensity (a.u.).

For “TGTTAGTATTAGGGTGCTTTTGGGTTTGGGGTTTCTGCCACGGAGTCACCTAGTGCAG”, the binding signal was 24200 fluorescence intensity (a.u.).

Regarding “ACTTTTATGTTGCTTGACGGCAGTCATCAACCCAGCAATACGGAGTCACCTAGTGCAG”, the binding signal was 8100 fluorescence intensity (a.u.).

Regarding “AGTGTGTTCCTCTTCTCTTAGCCCCAAATTTGCGATCCAACGGAGTCACCTAGTGCAG”, the binding signal is 10100 fluorescence intensity (a.u.).

As for “TCTTGTTCATATTGTTCAGTTAAAGCAGTTGATCTATTTTCGGAGTCACCTAGTGCAG”, the binding signal was 8220 fluorescence intensity (a.u.).
